Experimental data: PubChem BioAssay AID1259308 (NCATS, 2017)

Assay: 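Genes whose loss raises luciferase production in HEK293 cells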 (primary screen)
Cells: human HEK293 embryonic kidney cells stably expressing firefly luciferase (HEK-CMV-Luc2-Hygro)
Reagents: single siRNA against human genes, 0.8 pmol siRNA per well
Timing: 72 h
Read-out: 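Luciferase light (ONE-Glo) measured on one replicate plate set and viability (CellTiter-Glo) on the other, scaled to a negative control siRNA, with robust z-scores and luciferase per cell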
Scale: total luciferase, z-score and total luciferase, % of control: higher = more reporter protein produced
Hit rule: 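Active when the median/MAD z-score for overall luciferase is greater than 3; a gene was taken forward for validation with new siRNAs if at least two of its three siRNAs passed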
Meaning of the calls: active = raised luciferase; inactive = no rise
Here is an unselected part of about 59,000 reagents. Over the whole deposit, about 1,510 (2.6%) were called active. 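Calls use total luciferase alone and ignore viability, so some active siRNAs may act by altering cell number.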 A number with no mark means an inactive call. Reagents against one gene are numbered here. Not all columns of the deposit are shown.

Silencing of HTRA3 (HtrA serine peptidase 3) #1 came out at: total luciferase, z-score -0.975; total luciferase, % of control 62.5.
With knock-down of HTRA3 (HtrA serine peptidase 3) #2, the screen gave total luciferase, z-score -1.21; total luciferase, % of control 57.8.
After knock-down of HTRA3 (HtrA serine peptidase 3) #3, the screen gave total luciferase, z-score 0.982; total luciferase, % of control 101.
With knock-down of PRSS23 (serine protease 23) #1 the results were total luciferase, z-score -0.183; total luciferase, % of control 78.3.
Knock-down of PRSS23 (serine protease 23) #2 came out at: total luciferase, z-score 0.551; total luciferase, % of control 92.9.
PRSS23 (serine protease 23) #3 scored total luciferase, z-score 0.148; total luciferase, % of control 84.8.
ZNF320 (zinc finger protein 320) #1 scored total luciferase, z-score 0.768; total luciferase, % of control 97.2.
ZNF320 (zinc finger protein 320) #2 showed total luciferase, z-score 0.408; total luciferase, % of control 90.
After knock-down of ZNF320 (zinc finger protein 320) #3, the screen gave total luciferase, z-score 0.231; total luciferase, % of control 86.5.
For LOC643554 (ornithine aminotransferase pseudogene) #1, the entry reads total luciferase, z-score -0.382; total luciferase, % of control 74.3.
After knock-down of LOC643554 (ornithine aminotransferase pseudogene) #2 the results were total luciferase, z-score 2.64; total luciferase, % of control 134.
With knock-down of LOC643554 (ornithine aminotransferase pseudogene) #3 the results were total luciferase, z-score -1.76; total luciferase, % of control 46.8.

Just “total luciferase, z-score”, for 6 of the entries above:
HTRA3 (HtrA serine peptidase 3) #3	0.982
PRSS23 (serine protease 23) #1	-0.183
PRSS23 (serine protease 23) #2	0.551
PRSS23 (serine protease 23) #3	0.148
ZNF320 (zinc finger protein 320) #1	0.768
ZNF320 (zinc finger protein 320) #2	0.408

Additional entries follow.
With knock-down of TSC22D3 (TSC22 domain family member 3) #1, the screen gave total luciferase, z-score -0.0465; total luciferase, % of control 81.
Silencing of TSC22D3 (TSC22 domain family member 3) #2 resulted in: total luciferase, z-score 1.92; total luciferase, % of control 120.
Silencing of TSC22D3 (TSC22 domain family member 3) #3 gave: total luciferase, z-score 0.152; total luciferase, % of control 84.9.
With knock-down of SEMA3G (semaphorin 3G) #1, the screen gave total luciferase, z-score -0.736; total luciferase, % of control 67.3.
After knock-down of SEMA3G (semaphorin 3G) #2, the screen gave total luciferase, z-score 0.489; total luciferase, % of control 91.6.
With knock-down of SEMA3G (semaphorin 3G) #3 the results were total luciferase, z-score 1.13; total luciferase, % of control 104.
Knock-down of AMER2 (APC membrane recruitment protein 2) #1 gave: total luciferase, z-score -0.0781; total luciferase, % of control 80.3.
For AMER2 (APC membrane recruitment protein 2) #2, the values are total luciferase, z-score 1.15; total luciferase, % of control 105.
Against AMER2 (APC membrane recruitment protein 2) #3 the deposit lists total luciferase, z-score 0.955; total luciferase, % of control 101.
For UBALD1 (UBA like domain containing 1) #1, the entry reads total luciferase, z-score 0.46; total luciferase, % of control 91.
After knock-down of UBALD1 (UBA like domain containing 1) #2, the screen gave total luciferase, z-score -0.883; total luciferase, % of control 64.3.
Against UBALD1 (UBA like domain containing 1) #3, the values are total luciferase, z-score 0.729; total luciferase, % of control 96.4.
After knock-down of VNN1 (vanin 1) #1, the record shows total luciferase, z-score 0.574; total luciferase, % of control 93.3.
Knock-down of VNN1 (vanin 1) #2 gave: total luciferase, z-score 0.405; total luciferase, % of control 89.9.
Against VNN1 (vanin 1) #3, the entry reads total luciferase, z-score 0.556; total luciferase, % of control 92.9.
With knock-down of CFAP99 (cilia and flagella associated protein 99) #1, the screen gave total luciferase, z-score 1.47; total luciferase, % of control 111.
Silencing of CFAP99 (cilia and flagella associated protein 99) #2 gave: total luciferase, z-score 0.588; total luciferase, % of control 93.6.
After knock-down of CFAP99 (cilia and flagella associated protein 99) #3, the screen gave total luciferase, z-score 3.02 (active); total luciferase, % of control 142.
Depletion of CFAP99 (cilia and flagella associated protein 99) #4 came out at: total luciferase, z-score -1.14; total luciferase, % of control 59.2.
With knock-down of CFAP99 (cilia and flagella associated protein 99) #5, the screen gave total luciferase, z-score -0.475; total luciferase, % of control 72.4.
With knock-down of CFAP99 (cilia and flagella associated protein 99) #6, the screen gave total luciferase, z-score -1.41; total luciferase, % of control 53.8.
